Among the data in article PMC5833403 are binding values, retold here.

The assay concerns the target Dvl2, exogenously expressed in HEK293 cells (wild type). The assay is described as follows: co-IP; exogenous proteins expressed in HEK293 cells; for Dvl2-DPR1 with and without overexpressed Cftr.

These are yes or no findings as the source states them, for the method shown. Binding seen in cells or lysates may run through a third protein. Binding calls can cover weak binding; strength is not graded here.

B1: Dapper1 (DPR1) in HEK293 cells (protein, UniProt Q9NYF0 1-836)
chain: MKPSPAGTAKELEPPAPARGEQRTAEPEGRWREKGEADTERQRTRERQEATLAGLAELEYLRQRQELLVRGALRGAGGAGAAAPRAGELLGEAAQRSRLEEKFLEENILLLRKQLNCLRRRDAGLLNQLQELDKQISDLRLDVEKTSEEHLETDSRPSSGFYELSDGASGSLSNSSNSVFSECLSSCHSSTCFCSPLEATLSLSDGCPKSADLIGLLEYKEGHCEDQASGAVCRSLSTPQFNSLDVIADVNPKYQCDLVSKNGNDVYRYPSPLHAVAVQSPMFLLCLTGNPLREEDRLGNHASDICGGSELDAVKTDSSLPSPSSLWSASHPSSSKKMDGYILSLVQKKTHPVRTNKPRTSVNADPTKGLLRNGSVCVRAPGGVSQGNSVNLKNSKQACLPSGGIPSLNNGTFSPPKQWSKESKAEQAESKRVPLPEGCPSGAASDLQSKHLPKTAKPASQEHARCSAIGTGESPKESAQLSGASPKESPSRGPAPPQENKVVQPLKKMSQKNSLQGVPPATPPLLSTAFPVEERPALDFKSEGSSQSLEEAHLVKAQFIPGQQPSVRLHRGHRNMGVVKNSSLKHRGPALQGLENGLPTVREKTRAGSKKCRFPDDLDTNKKLKKASSKGRKSGGGPEAGVPGRPAGGGHRAGSRAHGHGREAVVAKPKHKRTDYRRWKSSAEISYEEALRRARRGRRENVGLYPAPVPLPYASPYAYVASDSEYSAECESLFHSTVVDTSEDEQSNYTTNCFGDSESSVSEGEFVGESTTTSDSEESGGLIWSQFVQTLPIQTVTAPDLHNHPAKTFVKIKASHNLKKKILRFRSGSLKLMTTV
Regarding B1, the binding entry was “binds”.
